In patent publication US20240009221A1, “PHARMACOLOGIC APPROACH FOR SUPPRESSION OF CORONAVIRUSES” (priority 2020, published 2024):
At least one compound was matched to its structure with a doubt left.

Test system: human coronavirus OC43
Test: Suppression of human coronavirus OC43 replication in infected Vero E6 cells (qRT-PCR of OC43 RNA copies in growth media)
Assay type: cell-based

**Q.** For `CCC(CC)COC(=O)[C@H](C)N[P@](=O)(OC[C@H]1O[C@@](C#N)(c2ccc3c(N)ncnn23)[C@H](O)[C@@H]1O)Oc1ccccc1` [Remdesivir, remdesivir], which “OC43 replication (OC43 RNA copies in the growth media, real time qRT-PCR with nucleocapsid (N) primers)” value (Vero E6 cells infected with OC43 (MOI:1), 0.1, 1.0, and 10 μM, 48 hrs post-infection) is on record?
**A.** Its value is “suppressed human coronavirus OC43 replication in a dose dependent manner”.

**Q.** With `Cc1cc(/C=C/C#N)cc(C)c1Nc1ccnc(Nc2ccc(C#N)cc2)n1` [Rilpivirine, rilpivirine] as the molecule, how does the viral replication (cells susceptible to infection by SARS-OC43 treated with rilpivirine) read?
**A.** The viral replication was “decreased viral replication”.
